The list shows a part of the results. These are further read-outs of the screen, such as a control signal, another cell line or another target. No call is given for them. The list favours compounds with an active or inconclusive main result. The note in brackets gives the kind of curve behind each potency; many fits are weak.
Test: qHTS Assay for Lipid Storage Modulators in Drosophila S3 Cells;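 on cell number change: cells counted by Cell Tracker Red CMTPX staining in the red channel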
Details: BODIPY lipid droplet fluorescence, 18-24 h; for cell number change: measured here: cell count max response, cells fed with added oleic acid
How it was run: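 Laser-scanning cytometry quantifies lipid droplet accumulation (500–530 nm total intensity; droplet/cell object ratio) in oleic acid-fed (400 uM added) Drosophila S3 cells treated with a concentration series. 20 uM Triacsin C defined 100% inhibition.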

[1] = measured here: cell number channel AC50, cells fed with added oleic acid
[2] = measured here: lipid fluorescence (Fed channel) AC50, cells fed with added oleic acid

SMILES	cell number change [%]	AC50 [1]	AC50 [2]
Cc1cc(C(=O)CSc2nnc(N)s2)c(C)n1CCc1ccc(F)cc1	56.5	29.1 µM [rising, single point]	29.1 µM [rising, partial curve]
Clc1ccc(NCn2cncn2)nc1	-3.25	–	3.66 µM [falling, single point]
CCN(CC)C1CCCCC1NS(=O)(=O)c1ccc(Cl)cc1 (stereo not drawn)	–	–	0.58 µM [falling, single point]
CCOC(=O)c1sc(NC(=O)CCN2C(=O)C3CCCCC3C2=O)cc1C (stereo not drawn)	14	–	20.6 µM [falling, single point]
CCN(CC(=O)Nc1c(F)cccc1F)C(=O)CCSc1ccc(C)cc1	-35.6	32.6 µM [falling, single point]	29.1 µM [falling, single point]
Cc1ccc(-c2nc(CS(=O)CC(=O)N3CCN(c4ncccn4)CC3)c(C)o2)cc1 (stereo not drawn)	-23.6	–	32.6 µM [falling, single point]
CCCN1CCN(c2ccc([N+](=O)[O-])cc2C#N)CC1	-8.33	0.00517 µM [falling, full curve, poor fit]	0.00461 µM [falling, full curve]
COc1ccc(OC)c(COC(=O)c2cc([N+](=O)[O-])ccc2N2CCOCC2)c1	19.4	–	29.1 µM [falling, single point]
O=C(Cn1cc([N+](=O)[O-])cn1)Nc1ccn(Cc2c(F)c(F)c(F)c(F)c2F)n1	51.6	10.3 µM [rising, partial curve, poor fit]	–
COc1ccc(C(=O)Nn2c(SCC(=O)c3ccccc3)nc3ccccc3c2=O)cc1	1.1	–	1.64 µM [falling, partial curve]
O=C(c1ccco1)n1nc(-c2ccccc2)nc1SCc1ccccc1	-26.2	0.058 µM [falling, full curve, poor fit]	25.9 µM [falling, partial curve]
Cc1nc2ncnn2c(N2CCC(C(=O)NC3CCCC3)CC2)c1Cc1ccccc1	–	0.461 µM [rising, partial curve, poor fit]	–
Cc1ccc(F)c(Oc2cc(NN3CCCCC3)c([N+](=O)[O-])cc2[N+](=O)[O-])c1	-38.5	20.6 µM [falling, single point]	–
S=C(Cc1ccc(Cl)cc1)N1CCOCC1	-51.5	2.06 µM [falling, full curve]	20.6 µM [falling, single point]
Cc1ccc(NC(=O)COC(=O)CCc2ccccc2)c(Cl)c1	30.3	–	–
COCC(CN1CCN(C2=NS(=O)(=O)c3ccccc32)CC1)OC(=O)c1ccccc1 (stereo not drawn)	-8.33	–	–
C=CCn1c2ccccc2c2nnc(SCC(=O)NC(C(=O)OC)C(C)C)nc21 (stereo not drawn)	–	0.146 µM [rising, full curve]	0.146 µM [rising, full curve]
COc1ccc(-n2c(C)cc(C(=O)Cn3nc(C(=O)O)c4ccccc4c3=O)c2C)cc1	-9.35	–	–
CCOc1cc(S(=O)(=O)N2CCN(S(=O)(=O)CC)CC2)c(OCC)cc1-n1cnnn1	1.22	–	9.2 µM [rising, single point]
CC(NC(=O)C1CC2CCCC(C1)C2=O)c1ccccc1 (stereo not drawn)	-11.7	–	0.13 µM [falling, full curve, poor fit]

Record cards, from the list above:
O=C(Cn1cc([N+](=O)[O-])cn1)Nc1ccn(Cc2c(F)c(F)c(F)c(F)c2F)n1 in the list: cell number change [%]: 51.6; AC50 [1]: 10.3 µM [rising, partial curve, poor fit]
O=C(c1ccco1)n1nc(-c2ccccc2)nc1SCc1ccccc1 in the list: cell number change [%]: -26.2; AC50 [1]: 0.058 µM [falling, full curve, poor fit]; AC50 [2]: 25.9 µM [falling, partial curve]
Cc1ccc(F)c(Oc2cc(NN3CCCCC3)c([N+](=O)[O-])cc2[N+](=O)[O-])c1 in the list: cell number change [%]: -38.5; AC50 [1]: 20.6 µM [falling, single point]
C=CCn1c2ccccc2c2nnc(SCC(=O)NC(C(=O)OC)C(C)C)nc21 (stereo not drawn) in the list: AC50 [1]: 0.146 µM [rising, full curve]; AC50 [2]: 0.146 µM [rising, full curve]

Later entries.

SMILES	cell number change [%]	AC50 [1]	AC50 [2]
COc1ccc(C2=Nc3cccc4cccc(c34)N2)cc1	20.9	1.46 µM [rising, full curve, poor fit]	–
COc1ccc(CN2CCN(Cc3ccccc3F)CC2)cc1OC	15.5	–	–
Cc1cc(C)c2nc(-c3cccnc3)cc(C(=O)Nc3ccc(S(=O)(=O)Nc4onc(C)c4C)cc3)c2c1	-32.5	–	–
O=C(OCc1nnc(-c2ccccc2)o1)C12CC3CC(CC(Br)(C3)C1)C2	18.9	–	–
Cc1cc(NC(=O)c2ccoc2C)ccc1Br	-66.5	14.6 µM [falling, partial curve]	–
COc1ccc(C(=O)NC2CCN(CC(=O)NC3CCCCC3)CC2)cc1	-1.59	–	29.1 µM [rising, single point]
COc1ccc(OC)c(NC(=O)C(CC(C)C)NC(=O)C2CCCCC2)c1 (stereo not drawn)	-1.4	–	0.92 µM [falling, full curve]
COc1ccc(-n2nnnc2SCC(=O)c2cc3ccccc3o2)cc1	-0.698	–	0.184 µM [rising, full curve, poor fit]
CCOC(=O)c1cnc(SC2CC(=O)N(c3ccc(C)cc3)C2=O)nc1N (stereo not drawn)	-47.8	25.9 µM [falling, single point]	–
COc1ccccc1NC(=O)CSc1n[nH]c(Cc2ccccc2)n1	29.7	–	29.1 µM [rising, single point]
Cc1cc2c(ncn2C)c(NS(=O)(=O)c2ccc(Cl)cc2)c1C	–	0.731 µM [falling, partial curve]	–
CCC(=O)Nc1ccc(Cl)c(NC(=O)c2ccccc2OC)c1	15.8	–	4.11 µM [rising, single point]
CCC1(c2ccccc2)NC(=O)N(CC(=O)N(CC(=O)Nc2ccccc2C(F)(F)F)Cc2ccco2)C1=O (stereo not drawn)	–	0.58 µM [falling, single point]	–
COc1ccc(C(=O)NCC(=O)OCC(=O)Nc2ccc(C)c(S(=O)(=O)N(C)C)c2)cc1OC	-5.09	–	2.59 µM [falling, single point]
Cc1cc(SCC(=O)c2ccc3c(c2)OCO3)nc2ccccc12	–	0.231 µM [rising, partial curve, poor fit]	–
C=CCNC(=O)c1n[nH]c2c1CC(C(C)(C)CC)CC2 (stereo not drawn)	-2.05	2.91 µM [falling, single point]	–
O=C(CCN1C(=O)/C(=C\c2ccccc2Cl)SC1=S)Nc1cccnc1	-7.11	–	4.11 µM [falling, full curve, poor fit]
COc1cc(C(=O)Nc2ccc(C(C)=O)cc2)c(Br)c(OC)c1OC	13.3	–	8.2 µM [rising, partial curve, poor fit]
O=C(NNC(=O)c1ccccc1O)c1cccc(Br)c1	24.9	–	29.1 µM [rising, single point]
Cc1ccc(S(=O)(=O)N2CCCC2CNC(=O)C(=O)NC2CCCC2)cc1 (stereo not drawn)	-7.41	–	16.4 µM [falling, partial curve, poor fit]

SMILES	cell number change [%]	AC50 [1]	AC50 [2]
O=C(C1=NN(c2ccccc2)C(=O)CC1)N1CCc2ccccc2C1	21.4	–	23.1 µM [rising, single point]
COc1ccc(C(=O)NCCS(=O)(=O)NCc2ccco2)cc1	–	0.731 µM [falling, single point]	–
Cc1cc(C(=O)Nc2ccc(S(=O)(=O)Nc3nccs3)cc2)c(C)o1	4.8	–	20.6 µM [falling, partial curve, poor fit]
CCOc1ccc(CCNC(=O)/C=C/c2ccco2)cc1OCC	-21.2	3.66 µM [falling, full curve, poor fit]	–
Cc1cccc2sc(NC(=O)c3ccc(OCC4CCCO4)cc3)nc12 (stereo not drawn)	42.6	11.6 µM [rising, partial curve, poor fit]	–
Cn1cc(CN2CCC(n3nccc3NC(=O)CCc3ccccc3)CC2)cn1	4.62	–	–
CN=C(C)c1c(O)c2ccccc2oc1=O	21.5	–	–
CCN1C(=O)/C(=C/C=C2\C=CN(CC)c3ccccc32)SC1=S	-18.2	2.06 µM [falling, partial curve, poor fit]	8.2 µM [falling, partial curve, poor fit]
O=C(NCCC1CCCCN1S(=O)(=O)c1ccccc1)C(=O)NCc1ccco1 (stereo not drawn)	–	4.11 µM [rising, partial curve, poor fit]	6.51 µM [rising, single point]
Cc1cn(S(=O)(=O)c2ccc(Br)cc2)cn1	28.9	4.61 µM [rising, full curve, poor fit]	6.51 µM [rising, full curve, poor fit]
OCc1ncccc1O	-26.2	–	11.6 µM [falling, single point]
COc1cccc(OCCCCN2CCCCC2)c1	-0.922	0.58 µM [falling, single point]	–
Fc1ccc(OCCCCCCN2CCCC2)cc1	-3.23	–	0.731 µM [rising, single point]
CC(C)CCN1C(=O)c2ccc(C(=O)Nc3ccccn3)cc2C1=O	-20.9	–	0.461 µM [falling, full curve]
COc1ccccc1/C=C(/NC(=O)c1ccc(Cl)cc1Cl)C(=O)O	–	–	0.58 µM [rising, single point]
COc1ccc(/C=C2/N=C(c3cccs3)OC2=O)cc1OC(C)C	-35.5	32.6 µM [falling, single point]	25.9 µM [falling, single point]
Cc1cccc(N2CCN(C(=O)CCn3c(=O)[nH]c4ccsc4c3=O)CC2C)c1 (stereo not drawn)	-23.8	–	0.092 µM [rising, full curve, poor fit]
COc1cc(C(=O)NCC(c2ccccc2)N(C)C)ccc1OCC(=O)N1CCOCC1 (stereo not drawn)	-20.6	0.00461 µM [falling, full curve, poor fit]	5.17 µM [falling, full curve]
NC(=O)Nc1ccc2c(c1)OCCO2	-38.7	3.26 µM [falling, full curve]	–
COc1ccc(C2N(C(=O)c3ccccc3)CCN2C(=O)c2ccc(C)cc2)cc1 (stereo not drawn)	-7.23	–	–
